In patent EP3725799B1, “PEPTIDE BINDING TO PL-L1 AND USE THEREOF” (Kyungpook National University Industry-Academic Cooperation …, priority 2017, dated 2025):
These are yes or no findings as the source states them, for the method shown. In cells and extracts the contact can be indirect. Binding can be weak; no strength is given.

Target: recombinant PD-L1
Assay: streptavidin pull-down of biotin-peptide with recombinant PD-L1, immunoblot

B1: PD-L1Pep-1 (peptide)
peptide: CLQKTPKQC
modifications: FITC, biotin or Flamma-675 conjugated to the N-terminal, according to the assay
binding: binds

B2: PD-L1Pep-2 (peptide)
peptide: CVRARTR
modifications: FITC, biotin or Flamma-675 conjugated to the N-terminal, according to the assay
binding: binds
